Results are given in words; binding and its absence hold for the method and conditions named. In cells and extracts the contact can be indirect. These calls come from enrichment with a bait or labelling near it, and not all partners need be listed.

By UniProt entry, the sequences of proteins in these tests, tags left out.
UniProt Q96NB1: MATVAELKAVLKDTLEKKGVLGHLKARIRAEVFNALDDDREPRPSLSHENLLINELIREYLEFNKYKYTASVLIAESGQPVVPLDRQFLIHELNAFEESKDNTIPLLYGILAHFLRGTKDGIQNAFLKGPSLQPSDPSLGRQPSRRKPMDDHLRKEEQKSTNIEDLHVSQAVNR
UniProt Q5VT06: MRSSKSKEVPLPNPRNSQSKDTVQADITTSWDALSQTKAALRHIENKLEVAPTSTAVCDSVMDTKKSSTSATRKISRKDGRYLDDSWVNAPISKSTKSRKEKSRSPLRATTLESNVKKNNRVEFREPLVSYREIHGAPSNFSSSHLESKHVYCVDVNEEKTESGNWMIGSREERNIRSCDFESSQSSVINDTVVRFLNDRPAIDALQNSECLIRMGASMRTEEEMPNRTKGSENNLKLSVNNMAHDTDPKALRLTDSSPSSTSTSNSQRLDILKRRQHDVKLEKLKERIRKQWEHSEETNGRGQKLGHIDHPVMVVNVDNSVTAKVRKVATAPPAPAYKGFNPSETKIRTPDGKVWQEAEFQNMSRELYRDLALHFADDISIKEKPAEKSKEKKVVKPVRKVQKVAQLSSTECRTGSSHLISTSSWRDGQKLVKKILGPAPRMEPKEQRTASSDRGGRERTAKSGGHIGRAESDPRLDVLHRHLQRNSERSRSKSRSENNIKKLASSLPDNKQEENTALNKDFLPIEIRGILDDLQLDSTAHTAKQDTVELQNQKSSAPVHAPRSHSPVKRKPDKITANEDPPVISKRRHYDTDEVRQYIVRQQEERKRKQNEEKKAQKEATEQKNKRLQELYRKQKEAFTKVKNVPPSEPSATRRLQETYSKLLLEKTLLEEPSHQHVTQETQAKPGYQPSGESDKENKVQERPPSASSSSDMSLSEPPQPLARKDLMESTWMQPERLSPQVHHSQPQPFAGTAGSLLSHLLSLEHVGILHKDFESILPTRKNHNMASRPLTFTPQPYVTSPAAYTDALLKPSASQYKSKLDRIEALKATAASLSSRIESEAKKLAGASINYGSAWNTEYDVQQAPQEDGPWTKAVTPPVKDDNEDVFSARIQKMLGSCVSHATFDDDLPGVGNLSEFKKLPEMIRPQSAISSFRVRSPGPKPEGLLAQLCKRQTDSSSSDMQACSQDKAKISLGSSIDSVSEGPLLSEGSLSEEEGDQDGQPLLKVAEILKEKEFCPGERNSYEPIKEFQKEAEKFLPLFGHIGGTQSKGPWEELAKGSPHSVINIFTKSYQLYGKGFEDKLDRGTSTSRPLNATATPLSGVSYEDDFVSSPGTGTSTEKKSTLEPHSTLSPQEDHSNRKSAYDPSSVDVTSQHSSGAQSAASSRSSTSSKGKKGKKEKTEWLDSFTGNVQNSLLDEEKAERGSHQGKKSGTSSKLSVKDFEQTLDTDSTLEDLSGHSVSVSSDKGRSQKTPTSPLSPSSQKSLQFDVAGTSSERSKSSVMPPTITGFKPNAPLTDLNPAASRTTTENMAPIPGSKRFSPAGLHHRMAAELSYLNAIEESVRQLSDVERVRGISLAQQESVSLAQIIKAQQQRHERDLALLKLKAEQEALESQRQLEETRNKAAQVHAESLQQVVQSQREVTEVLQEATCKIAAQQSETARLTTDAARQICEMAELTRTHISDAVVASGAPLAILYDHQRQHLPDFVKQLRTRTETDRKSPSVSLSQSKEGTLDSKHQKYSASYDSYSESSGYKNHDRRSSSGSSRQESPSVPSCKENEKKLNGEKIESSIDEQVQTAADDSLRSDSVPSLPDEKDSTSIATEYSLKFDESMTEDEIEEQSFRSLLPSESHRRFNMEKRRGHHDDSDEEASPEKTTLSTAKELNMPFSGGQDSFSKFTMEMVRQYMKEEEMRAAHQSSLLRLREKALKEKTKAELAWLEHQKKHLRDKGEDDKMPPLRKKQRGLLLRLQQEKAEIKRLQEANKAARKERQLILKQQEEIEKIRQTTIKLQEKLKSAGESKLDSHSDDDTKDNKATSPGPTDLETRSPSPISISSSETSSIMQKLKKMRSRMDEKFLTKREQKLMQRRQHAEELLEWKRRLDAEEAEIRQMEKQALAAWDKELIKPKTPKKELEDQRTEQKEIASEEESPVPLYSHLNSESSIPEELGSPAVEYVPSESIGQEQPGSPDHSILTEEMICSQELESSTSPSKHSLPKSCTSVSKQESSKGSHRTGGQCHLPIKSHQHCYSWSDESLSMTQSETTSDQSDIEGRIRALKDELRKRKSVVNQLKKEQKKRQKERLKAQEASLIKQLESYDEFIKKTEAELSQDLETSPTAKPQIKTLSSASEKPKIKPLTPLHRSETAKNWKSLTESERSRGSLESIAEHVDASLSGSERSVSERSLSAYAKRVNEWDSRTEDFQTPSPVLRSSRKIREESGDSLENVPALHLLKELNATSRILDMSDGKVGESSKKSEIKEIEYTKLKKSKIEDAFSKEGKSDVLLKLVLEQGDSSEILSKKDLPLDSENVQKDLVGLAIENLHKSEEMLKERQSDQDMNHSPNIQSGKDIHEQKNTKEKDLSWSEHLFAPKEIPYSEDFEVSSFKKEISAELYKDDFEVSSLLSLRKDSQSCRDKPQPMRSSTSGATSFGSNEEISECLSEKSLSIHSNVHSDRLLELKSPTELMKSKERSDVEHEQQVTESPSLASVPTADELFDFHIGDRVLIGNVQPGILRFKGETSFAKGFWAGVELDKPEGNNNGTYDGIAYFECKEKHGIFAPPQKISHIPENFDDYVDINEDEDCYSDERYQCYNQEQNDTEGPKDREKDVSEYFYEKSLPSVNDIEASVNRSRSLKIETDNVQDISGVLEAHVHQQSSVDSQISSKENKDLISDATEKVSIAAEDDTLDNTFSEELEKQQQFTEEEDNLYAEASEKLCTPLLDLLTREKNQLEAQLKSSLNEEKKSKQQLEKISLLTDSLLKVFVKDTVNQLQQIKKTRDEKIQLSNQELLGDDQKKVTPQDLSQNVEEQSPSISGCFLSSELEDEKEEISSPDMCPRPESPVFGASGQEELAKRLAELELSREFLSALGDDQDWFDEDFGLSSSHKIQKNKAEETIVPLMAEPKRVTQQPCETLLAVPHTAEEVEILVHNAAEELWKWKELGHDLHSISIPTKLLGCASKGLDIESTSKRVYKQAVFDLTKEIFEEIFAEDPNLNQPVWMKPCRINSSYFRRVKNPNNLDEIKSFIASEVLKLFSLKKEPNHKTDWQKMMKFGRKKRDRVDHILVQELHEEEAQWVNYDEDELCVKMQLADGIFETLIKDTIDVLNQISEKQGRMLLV
UniProt Q9BVV6: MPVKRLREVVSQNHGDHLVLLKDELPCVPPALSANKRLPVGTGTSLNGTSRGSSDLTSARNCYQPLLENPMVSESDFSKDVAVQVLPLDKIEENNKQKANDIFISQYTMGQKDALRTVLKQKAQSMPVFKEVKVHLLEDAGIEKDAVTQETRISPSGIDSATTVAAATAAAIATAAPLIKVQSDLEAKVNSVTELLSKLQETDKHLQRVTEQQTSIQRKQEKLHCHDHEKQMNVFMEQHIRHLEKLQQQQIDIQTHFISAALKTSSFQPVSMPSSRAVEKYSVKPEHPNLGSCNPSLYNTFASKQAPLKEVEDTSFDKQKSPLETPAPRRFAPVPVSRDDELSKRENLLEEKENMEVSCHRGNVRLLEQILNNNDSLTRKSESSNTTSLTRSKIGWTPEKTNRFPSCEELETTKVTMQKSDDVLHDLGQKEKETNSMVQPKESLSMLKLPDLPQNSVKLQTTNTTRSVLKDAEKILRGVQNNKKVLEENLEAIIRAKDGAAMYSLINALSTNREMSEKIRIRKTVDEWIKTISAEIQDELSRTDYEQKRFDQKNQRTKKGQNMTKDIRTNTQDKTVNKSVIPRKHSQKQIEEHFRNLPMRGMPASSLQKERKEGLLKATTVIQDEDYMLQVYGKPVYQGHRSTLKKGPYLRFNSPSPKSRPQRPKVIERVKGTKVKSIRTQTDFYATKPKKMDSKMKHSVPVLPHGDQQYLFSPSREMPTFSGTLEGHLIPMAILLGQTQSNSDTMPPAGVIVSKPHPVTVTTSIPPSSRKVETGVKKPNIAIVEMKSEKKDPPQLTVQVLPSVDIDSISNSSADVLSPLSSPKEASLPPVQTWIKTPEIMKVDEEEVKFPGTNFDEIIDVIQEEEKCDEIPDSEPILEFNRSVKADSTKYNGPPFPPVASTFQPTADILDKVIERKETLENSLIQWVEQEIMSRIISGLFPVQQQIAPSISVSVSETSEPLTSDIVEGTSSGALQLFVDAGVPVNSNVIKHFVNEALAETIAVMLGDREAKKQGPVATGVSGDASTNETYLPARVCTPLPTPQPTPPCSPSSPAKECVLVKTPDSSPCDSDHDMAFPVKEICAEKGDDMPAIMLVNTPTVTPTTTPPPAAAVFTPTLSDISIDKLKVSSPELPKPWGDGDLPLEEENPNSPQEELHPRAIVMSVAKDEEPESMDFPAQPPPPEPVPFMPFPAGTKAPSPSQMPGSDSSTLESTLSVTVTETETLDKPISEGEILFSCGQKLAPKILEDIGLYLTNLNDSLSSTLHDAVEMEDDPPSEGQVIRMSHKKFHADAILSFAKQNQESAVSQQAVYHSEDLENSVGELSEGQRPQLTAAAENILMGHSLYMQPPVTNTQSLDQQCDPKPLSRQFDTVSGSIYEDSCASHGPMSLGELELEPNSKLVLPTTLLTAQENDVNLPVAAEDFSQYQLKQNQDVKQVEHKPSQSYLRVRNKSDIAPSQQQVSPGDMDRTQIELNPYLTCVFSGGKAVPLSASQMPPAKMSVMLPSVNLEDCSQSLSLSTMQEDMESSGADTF

The results in this text go back to paper PMC9484695, “The evolutionary conserved proteins CEP90, FOPNL, and OFD1 recruit centriolar distal appendage proteins to initiate their assembly” (PLoS Biology, 2022).

The labels stand for the following.
B1: OFIP/MNR/KIAA0753 (endogenous) (protein, UniProt Q2KHM9 1-967)
chain: MGPGQPASTCVHLAPRTQLDGRSDPKVLQTQNQLQFNRNVPTHSSNLAIRYSCPHAIRIEKLKHSYNESYHCKDADCRVGPDLGSSVSFSVISQERLSYAVHLARRDVKRRQFEKHIKEHHLRSQPQSSQKCGHTKYKIPDHRVERKESKSQAACQCSHQPSKVEISSSGAKVYLYSSHPGQSDLTVPNSPPTHDPGLQPHPRIGDHKNISEQKSLLEVQRLQKELSSCIHKIEEVTKKDRLEEALDPDEERRIRIRRQEQAARSARMLYVLQQQVKEIQEELDKLSPHKIKHTKKSWAMSKLAAAHRGAIRALQMFVTQFTDRGEHPLPARCKELGSLIRQLSLCSVKLDADPSVPDVVIDILQQIEALESLLEKKLSPKKVKKCFSEIRSRFPIGSQKALERWPSTSPKGERRPLTAKDTFPQETSRPSVAKQLLADKYQPDTELPETQRLQSELDVLDADIVLEEGPFILDQSASFKDEVLAVAKTKAGKKKPVTENVPFRKKDTLAPARQQGLRKAERGRQSQPHSKSRVQQTTVSSRLKMNRQPVKDRKAPWIPPNPTSPPASPKCAAWLKVKTSPRDATKEPLQQEDPQEESHLTGAVEHEAARLAWLDAETSKRLKELEELKAKEIDSMQKQRLDWLDAETSRRTKELNELKAEEMYRLQQLSVSATHLADKVEEAVLDRLKPLLVKAQRVNSTTEANIHLKDGSSVNTAKAQPAQEVAAVDFESNNIRQLDDFLEDCASELWAVTHAKILGSETLATVEDSKDSPDLEIMMRRMEEMEKYQESVRQRYNKIAYADPRLWMQEENNDQKISAISEKPLSPHPIRITKTVDRKDPAVNIMLERPCNGNSLDESVGTEEGSEKREAPLLSLAEDSQQKEGRAPLFVPPGMQHSIGDYCSRFEQYLRIISHEAVGSFNPWLIAESFSEELVDEALGAVAAELQDMCEDYAEAVFTSEFLEAAT
B2: Cep131 (endogenous) (protein, UniProt Q9UPN4 1-1083)
chain: MKGTRAIGSVPERSPAGVDLSLTGLPPPVSRRPGSAATTKPIVRSVSVVTGSEQKRKVLEATGPGGSQAINNLRRSNSTTQVSQPRSGSPRPTEPTDFLMLFEGSPSGKKRPASLSTAPSEKGATWNVLDDQPRGFTLPSNARSSSALDSPAGPRRKECTVALAPNFTANNRSNKGAVGNCVTTMVHNRYTPSERAPPLKSSNQTAPSLNNIIKAATCEGSESSGFGKLPKNVSSATHSARNNTGGSTGLPRRKEVTEEEAERFIHQVNQATVTIQRWYRHQVQRRGAGAARLEHLLQAKREEQRQRSGEGTLLDLHQQKEAARRKAREEKARQARRAAIQELQQKRALRAQKASTAERGPPENPRETRVPGMRQPAQELSPTPGGTAHQALKANNTGGGLPAAGPGDRCLPTSDSSPEPQQPPEDRTQDVLAQDAAGDNLEMMAPSRGSAKSRGPLEELLHTLQLLEKEPDVLPRPRTHHRGRYAWASEVTTEDDASSLTADNLEKFGKLSAFPEPPEDGTLLSEAKLQSIMSFLDEMEKSGQDQLDSQQEGWVPEAGPGPLELGSEVSTSVMRLKLEVEEKKQAMLLLQRALAQQRDLTARRVKETEKALSRQLQRQREHYEATIQRHLAFIDQLIEDKKVLSEKCEAVVAELKQEDQRCTERVAQAQAQHELEIKKLKELMSATEKARREKWISEKTKKIKEVTVRGLEPEIQKLIARHKQEVRRLKSLHEAELLQSDERASQRCLRQAEELREQLEREKEALGQQERERARQRFQQHLEQEQWALQQQRQRLYSEVAEERERLGQQAARQRAELEELRQQLEESSSALTRALRAEFEKGREEQERRHQMELNTLKQQLELERQAWEAGRTRKEEAWLLNREQELREEIRKGRDKEIELVIHRLEADMALAKEESEKAAESRIKRLRDKYEAELSELEQSERKLQERCSELKGQLGEAEGENLRLQGLVRQKERALEDAQAVNEQLSSERSNLAQVIRQEFEDRLAASEEETRQAKAELATLQARQQLELEEVHRRVKTALARKEEAVSSLRTQHEAAVKRADHLEELLEQHRRPTPSTK
B3: CEP90/PIBF1 (endogenous) (protein, UniProt Q8WXW3 1-757)
chain: MSRKISKESKKVNISSSLESEDISLETTVPTDDISSSEEREGKVRITRQLIERKELLHNIQLLKIELSQKTMMIDNLKVDYLTKIEELEEKLNDALHQKQLLTLRLDNQLAFQQKDASKYQELMKQEMETILLRQKQLEETNLQLREKAGDVRRNLRDFELTEEQYIKLKAFPEDQLSIPEYVSVRFYELVNPLRKEICELQVKKNILAEELSTNKNQLKQLTETYEEDRKNYSEVQIRCQRLALELADTKQLIQQGDYRQENYDKVKSERDALEQEVIELRRKHEILEASHMIQTKERSELSKEVVTLEQTVTLLQKDKEYLNRQNMELSVRCAHEEDRLERLQAQLEESKKAREEMYEKYVASRDHYKTEYENKLHDELEQIRLKTNQEIDQLRNASREMYERENRNLREARDNAVAEKERAVMAEKDALEKHDQLLDRYRELQLSTESKVTEFLHQSKLKSFESERVQLLQEETARNLTQCQLECEKYQKKLEVLTKEFYSLQASSEKRITELQAQNSEHQARLDIYEKLEKELDEIIMQTAEIENEDEAERVLFSYGYGANVPTTAKRRLKQSVHLARRVLQLEKQNSLILKDLEHRKDQVTQLSQELDRANSLLNQTQQPYRYLIESVRQRDSKIDSLTESIAQLEKDVSNLNKEKSALLQTKNQMALDLEQLLNHREELAAMKQILVKMHSKHSENSLLLTKTEPKHVTENQKSKTLNVPKEHEDNIFTPKPTLFTKKEAPEWSKKQKMKT

This experiment deals with myc-BirA*-FOPNL (human) (UniProt Q96NB1). Nature of the experiment: proximity labelling; BioID: Flp-In T-REx HEK293 expressing myc-BirA*-FOPNL (control myc-BirA*), 50 uM biotin 24 h with tetracycline; isolated centrosome-nucleus complexes lysed; biotinylated proteins on streptavidin beads; LC-MS/MS.
Take “CEP350 (endogenous) (from UniProt Q5VT06 1-3117)”: the binding result is given as “binds”. The result for “Talpid3/KIAA0586 (endogenous) (from UniProt Q9BVV6 1-1533)” reads “binds”; that for “PCM1 (endogenous) (from UniProt Q15154 1-2024)”, “binds”; that for B1, “binds”. For the molecule B2, the binding result was “binds”. As to B3, the binding entry is given as “binds”.
